Experimental data: paper doi:10.1101/824458 (bioRxiv, 2019)
No constants are given. Whether binding was seen depends on the method and setting. Tags and fused reporters may be left off the sequences shown.

Molecular target: T1, viperin-ΔN50 (residues 50-361), recombinant, C-terminal His6-tagged, iron-sulfur cluster reconstituted (human) (UniProt Q8WXG1)
T1 sequence: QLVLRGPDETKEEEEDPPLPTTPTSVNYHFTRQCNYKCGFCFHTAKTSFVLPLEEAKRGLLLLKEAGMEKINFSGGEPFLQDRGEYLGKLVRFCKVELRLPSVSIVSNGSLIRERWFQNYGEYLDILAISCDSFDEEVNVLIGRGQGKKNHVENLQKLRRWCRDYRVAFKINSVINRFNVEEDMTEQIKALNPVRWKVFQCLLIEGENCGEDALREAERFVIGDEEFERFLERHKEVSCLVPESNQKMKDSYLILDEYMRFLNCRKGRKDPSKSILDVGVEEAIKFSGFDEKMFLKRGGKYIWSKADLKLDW
Assay: cross-linking

binding: no binding
B1: VAP-33-ΔC20 (recombinant human VAP-33 protein, residues 1-227) (domain or fragment, UniProt Q9P0L0 1-227, looked up)
chain: MASASGAMAKHEQILVLDPPTDLKFKGPFTDVVTTNLKLRNPSDRKVCFKVKTTAPRRYCVRPNSGIIDPGSTVTVSVMLQPFDYDPNEKSKHKFMVQTIFAPPNTSDMEAVWKEAKPDELMDSKLRCVFEMPNENDKLNDMEPSKAVPLNASKQDGPMPKPHSVSLNDTETRKLMEECKRLQGEMMKLSEENRHLRDEGLRLRKVAHSDKPGSTSTASFRDNVTSP
